Results on 2 substances are retold here after PMC11328492.

The chains behind the UniProt entries cited, without tags or fusion partners.
UniProt P37231: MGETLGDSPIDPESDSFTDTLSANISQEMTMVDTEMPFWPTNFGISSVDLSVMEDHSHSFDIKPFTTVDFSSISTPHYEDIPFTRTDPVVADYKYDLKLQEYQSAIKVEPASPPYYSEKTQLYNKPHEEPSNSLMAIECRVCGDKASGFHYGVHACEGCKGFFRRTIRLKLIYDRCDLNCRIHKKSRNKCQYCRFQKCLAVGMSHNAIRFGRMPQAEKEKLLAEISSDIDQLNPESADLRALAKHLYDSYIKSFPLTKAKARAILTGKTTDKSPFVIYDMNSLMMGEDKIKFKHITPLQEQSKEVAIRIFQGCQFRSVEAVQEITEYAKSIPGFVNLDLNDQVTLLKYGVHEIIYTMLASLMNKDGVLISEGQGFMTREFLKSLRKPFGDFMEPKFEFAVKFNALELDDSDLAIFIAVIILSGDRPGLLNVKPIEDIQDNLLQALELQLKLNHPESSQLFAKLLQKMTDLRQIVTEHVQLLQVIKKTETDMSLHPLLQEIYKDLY

These are yes or no findings as the source states them, for the method shown. In cells and extracts the contact can be indirect. These calls come from enrichment with a bait or labelling near it, and not all partners need be listed. Where a sequence is shown, tags or fusion partners need not be part of it.

Experiment [1] addresses T1, Flag-ZDHHC6 (3×Flag, pcDNA3.4), expressed in CRC cells (human) (UniProt Q9H6R6).
T1 sequence: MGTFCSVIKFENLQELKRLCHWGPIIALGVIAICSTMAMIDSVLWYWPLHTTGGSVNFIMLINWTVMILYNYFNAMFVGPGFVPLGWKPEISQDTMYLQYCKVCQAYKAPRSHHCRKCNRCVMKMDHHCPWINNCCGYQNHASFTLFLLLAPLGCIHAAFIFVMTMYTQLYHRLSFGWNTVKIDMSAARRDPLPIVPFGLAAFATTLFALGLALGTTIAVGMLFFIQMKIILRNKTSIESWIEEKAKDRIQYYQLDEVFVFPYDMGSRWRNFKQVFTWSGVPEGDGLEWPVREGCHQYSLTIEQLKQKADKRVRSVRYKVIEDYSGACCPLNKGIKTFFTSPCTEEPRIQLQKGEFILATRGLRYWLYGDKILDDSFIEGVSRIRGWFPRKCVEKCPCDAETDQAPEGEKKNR
The experiment in a line: affinity purification with mass spectrometry; IP-MS of HCT116, Caco-2, SNU-C2A and HT-29 cells transfected with Flag-ZDHHC6 and His-PPARγ.

Experiment [2] concerns the target T2, SFB-ZDHHC6 (S-protein-Flag-Streptavidin binding peptide tagged ZDHHC6) (human) (UniProt Q9H6R6).
T2 sequence: T1 sequence
The experiment in a line: affinity purification with mass spectrometry; tandem affinity purification of SFB-ZDHHC6 from HCT116 cells 24 h after transfection, then mass spectrometry.

On to “His-PPARγ, expressed in CRC cells (from UniProt P37231 1-505)”, for which the binding entry in experiment [1] is reported as “binds”. As for “Peroxisome proliferator-activated receptor gamma (PPARγ), endogenous (from UniProt P37231 1-505)”, the binding result in experiment [2] was “binds”.
